SMILES strings stand for the structures. Some of the results follow. Many values rest on one well or one pass, so single values are uncertain.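 Imaging used 1,536-well plates; nuclei positive for cleaved PARP by antibody were divided by total DNA-stained nuclei to yield the apoptosis fraction. Doses for screening kept most cells viable, and cell lines differ markedly in resting and induced cleaved-PARP levels.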

Holding throughout (test): cleaved PARP positive nuclei fraction relative to DMSO control; melanoma cells; higher = more apoptosis
What all share (conditions): library dose: low library concentration; 72 h

The subject of test [1] is 501Mel.
Test [2] has as its system A101D.
The subject of test [3] is A2058.
Test [4] deals with A375.
Test [5] deals with C32.
Test [6] deals with CBRC008 (line from a melanoma biopsy).
Test [7] deals with CBRC014 (line from a melanoma biopsy).
The test system of test [8] is CBRC016 (line from a melanoma biopsy).
The subject of test [9] is CBRC017 (line from a melanoma biopsy).
The test system of test [10] is CBRC034 (line from a melanoma biopsy).
Test [11] concerns COLO792.
Test [12] deals with COLO800.
In test [13] the test system is COLO829.
Test [14] has as its system G361.
Test [15] deals with IPC-298.
Test [16] deals with IST-MEL1.
For test [17], the system named is LB2518-MEL.
Test [18] has as its system LOXIMVI.
Test [19] relates to MEL-HO.

Turning to `Cc1ccc(Nc2nccc(N(C)c3ccc4c(C)n(C)nc4c3)n2)cc1S(N)(=O)=O` [Pazopanib] + NC(=O)c1ccc(N(C(N)=O)c2c(F)cccc2F)nc1-c1ccc(F)cc1F [VX702] (first compound 0.4 µM, partner dose 0.4 µM), the “cleaved PARP positive nuclei fraction” value in test [1] worked out at 128%; in [2] it was 105%; in [3], 25.3%; in [4], 94.3%; in test [5], 66.2%; in test [6] it was 66.2%. In addition, the “cleaved PARP positive nuclei fraction” value was determined as 115% in [7]; 69.1% in test [8]; 119% in [9]; 63.4% in test [10]; 105% in [11]; 123% in test [12]. The “cleaved PARP positive nuclei fraction” value is 68.5% in [13]; 121% in test [14]; 110% in [15]; 255% in [16]; 244% in [17]; 103% in test [18]. In addition, the “cleaved PARP positive nuclei fraction” value in test [19] was 228%.
For `O=C(Nc1cc(C(F)(F)F)cc(C(F)(F)F)c1)c1cc(Cl)ccc1O` + CCCS(=O)(=O)Nc1ccc(F)c(C(=O)c2c[nH]c3ncc(Cl)cc23)c1F [PLX4720] (first compound 0.016 µM, partner dose 0.08 µM), the “cleaved PARP positive nuclei fraction” value in [1] was 61.8%; in [2], 102%; in [3] it was 46.8%; in [4], 149%; in [5], 88.6%; in test [6], 113%. Besides, the “cleaved PARP positive nuclei fraction” value is 104% in test [7]; 155% in test [8]; 104% in test [9]; 145% in test [10]; 64.3% in test [11]; 122% in test [12]. For the same compound, the “cleaved PARP positive nuclei fraction” value came to 116% in test [13]; 121% in test [14]; 45.2% in [15]; 124% in [16]; 103% in [17]; 136% in [18]. In addition, the “cleaved PARP positive nuclei fraction” value in test [19] is 59.6%.
Consider `CCCCCCCCCCCCCCCCCCOP(=O)([O-])OC1CC[N+](C)(C)CC1` [Perifosine] + O=C(O)[C@@H]1[O][Sb](=[O])([O][Sb]2(=[O])[O][C@H]([C@H](O)CO)[C@H](O)[C@H](C(=O)O)[O]2)[O][C@H]([C@H](O)CO)[C@@H]1O [stibogluconate] (first compound 0.4 µM, partner dose 2 µM), for which the “cleaved PARP positive nuclei fraction” value is 75.3% in [1]; 85.8% in test [2]; 95.5% in test [3]; 46.9% in test [4]; 89.2% in [5]; 56.6% in [6]. The “cleaved PARP positive nuclei fraction” value amounted to 98.3% in test [7]; 128% in [8]; 93.8% in test [9]; 81.5% in test [10]; 96.7% in test [11]; 158% in test [12]. Besides, the “cleaved PARP positive nuclei fraction” value turned out to be 83.8% in test [13]; 61.1% in [14]; 42.3% in test [15]; 63.6% in test [16]; 350% in [17]; 150% in [18]. For the same compound, the “cleaved PARP positive nuclei fraction” value in test [19] is 281%.
In the case of `CC[C@]1(O)C[C@H]2CN(CCc3c([nH]c4ccccc34)[C@@](C(=O)OC)(c3cc4c(cc3OC)N(C=O)[C@H]3[C@@](O)(C(=O)OC)[C@H](OC(C)=O)[C@]5(CC)C=CCN6CC[C@]43[C@@H]65)C2)C1` [vincristine] + COc1cc([C@@H]2c3cc4c(cc3[C@@H](O[C@@H]3O[C@@H]5CO[C@@H](C)O[C@H]5[C@H](O)[C@H]3O)[C@H]3COC(=O)[C@H]23)OCO4)cc(OC)c1O [etoposide] (first compound 0.0001 µM, partner dose 0.02 µM), the “cleaved PARP positive nuclei fraction” value in test [1] turned out to be 104%; in [2] it was 106%; in test [3], 1040%; in test [4], 93.8%; in test [5] it was 78.8%; in [6], 337%. Also, the “cleaved PARP positive nuclei fraction” value in [7] came to 107%; in [8], 283%; in test [9], 143%; in [10], 163%; in test [11] it was 104%; in test [12] it was 78.7%. In addition, the “cleaved PARP positive nuclei fraction” value in test [13] is 126%; in test [14], 171%; in [15] it was 138%; in [16], 69.1%; in test [17], 571%; in test [18], 203%. Also, the “cleaved PARP positive nuclei fraction” value in test [19] was found to be 192%.
Turning to `O=c1[nH]nc(Sc2ncc([N+](=O)[O-])s2)n1-c1ccc2c(c1)OCCO2` + Cn1c(Nc2ccc(C(F)(F)F)cc2)nc2cc(Oc3ccnc(-c4ncc(C(F)(F)F)[nH]4)c3)ccc21 [CHIR265] (first compound 0.2 µM, partner dose 0.08 µM), the “cleaved PARP positive nuclei fraction” value in test [1] came to 83.7%; in test [2], 170%; in test [3], 79.8%; in test [4] it was 144%; in [5] it was 88.1%; in test [6], 93.9%. Moreover, the “cleaved PARP positive nuclei fraction” value was 110% in test [7]; 30.4% in [8]; 114% in test [9]; 168% in test [10]; 200% in test [11]; 110% in [12]. In addition, the “cleaved PARP positive nuclei fraction” value worked out at 116% in test [13]; 173% in [14]; 173% in [15]; 66% in test [16]; 156% in test [17]; 89.8% in [18]. In addition, the “cleaved PARP positive nuclei fraction” value in [19] is 143%.
`Cc1cc(Nc2cc(N3CCN(C)CC3)nc(Sc3ccc(NC(=O)C4CC4)cc3)n2)n[nH]1` [Tozasertib] + C[C@]1(c2nc3c(C(N)=O)cccc3[nH]2)CCCN1 [Veliparib] (first compound 0.006 µM, partner dose 1.4 µM): the “cleaved PARP positive nuclei fraction” value was 68% in [1]; 224% in [2]; 183% in test [3]; 170% in test [4]; 87% in [5]; 41.3% in test [6]. In addition, the “cleaved PARP positive nuclei fraction” value in test [7] came to 112%; in [8], 154%; in test [9] it was 134%; in test [10], 139%; in test [11], 137%; in test [12] it was 152%. The “cleaved PARP positive nuclei fraction” value in test [13] came to 147%; in test [14] it was 185%; in [15], 172%; in test [16], 33.4%; in [17], 210%; in test [18], 109%. In test [19], the “cleaved PARP positive nuclei fraction” value was 90%.

The record behind these values is the supplement of paper PMC4604168 (melanoma cell lines).
